Common to all, as to test: DAPPL (digital affinity profiling via proximity ligation, sequencing)
Common to all, as to conditions: 10 mM Tris-HCl pH 7.5, 50 mM NaCl, 1 mM DTT, 4% glycerol, room temperature, 30 min; GST-TFs on glutathione beads, 16-mer random dsDNA library, 0.1% …; high values mean tight binding; double strand, one strand shown; scale: fold enrichment (6-mer frequency, TF over GST control)

Assay [1] has as its target T1, GABPA (UniProt Q06546).
T1 sequence: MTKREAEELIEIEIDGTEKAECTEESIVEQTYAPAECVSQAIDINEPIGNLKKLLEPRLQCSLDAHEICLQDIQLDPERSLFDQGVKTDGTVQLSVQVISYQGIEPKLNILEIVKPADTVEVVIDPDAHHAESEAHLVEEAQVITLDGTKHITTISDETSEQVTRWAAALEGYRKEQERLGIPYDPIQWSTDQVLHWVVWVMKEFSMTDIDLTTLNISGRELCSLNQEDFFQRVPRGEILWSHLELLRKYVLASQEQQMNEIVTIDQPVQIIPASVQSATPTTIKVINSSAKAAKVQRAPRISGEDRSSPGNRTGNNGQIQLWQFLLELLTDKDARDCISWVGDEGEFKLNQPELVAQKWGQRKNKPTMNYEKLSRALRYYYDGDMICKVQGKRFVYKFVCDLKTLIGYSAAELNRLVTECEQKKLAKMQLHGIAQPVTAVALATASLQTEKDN

Assay [2] has as its target T2, ETS1 (UniProt P14921).
T2 sequence: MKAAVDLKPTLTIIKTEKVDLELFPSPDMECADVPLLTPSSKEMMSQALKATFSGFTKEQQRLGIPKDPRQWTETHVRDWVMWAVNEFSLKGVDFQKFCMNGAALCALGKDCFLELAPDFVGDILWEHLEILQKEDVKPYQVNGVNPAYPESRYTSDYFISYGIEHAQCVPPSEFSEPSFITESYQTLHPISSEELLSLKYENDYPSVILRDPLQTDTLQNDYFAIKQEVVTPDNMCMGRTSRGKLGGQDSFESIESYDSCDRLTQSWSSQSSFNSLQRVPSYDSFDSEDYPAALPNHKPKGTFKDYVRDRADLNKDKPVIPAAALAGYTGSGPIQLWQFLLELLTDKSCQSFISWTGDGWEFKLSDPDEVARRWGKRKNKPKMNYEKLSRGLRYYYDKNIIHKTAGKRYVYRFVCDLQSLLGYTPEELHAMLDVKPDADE

The target in assay [3] is T3, SPDEF (UniProt O95238).
T3 sequence: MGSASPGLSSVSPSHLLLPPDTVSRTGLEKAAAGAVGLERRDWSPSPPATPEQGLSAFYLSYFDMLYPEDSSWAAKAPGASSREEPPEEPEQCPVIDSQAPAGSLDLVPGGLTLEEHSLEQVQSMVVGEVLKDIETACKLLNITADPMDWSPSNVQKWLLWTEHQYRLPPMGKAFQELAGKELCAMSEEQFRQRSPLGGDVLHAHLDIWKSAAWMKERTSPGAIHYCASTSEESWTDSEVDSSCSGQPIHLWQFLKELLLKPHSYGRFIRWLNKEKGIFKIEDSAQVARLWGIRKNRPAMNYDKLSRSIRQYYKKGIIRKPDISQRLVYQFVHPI

This is a selection; strong and weak results do not stand in their true shares. For part of these data: At the low end of the ranking, values are background and their order means little. This is one part of the list. For part of these data: The source does not settle which construct or isoform was used.

Consider CAATGA, for which the binding signal worked out at 1.05 in assay [1], 1.05 in assay [2] and 0.952 in assay [3].

As for TGACGC, the figures for the binding signal in assay [1], in assay [2] and in assay [3] were 1.15, 1.25 and 1.13, respectively.

Take GGTCCA: the results for the binding signal in assay [1], in assay [2] and in assay [3] were 0.876, 0.912 and 0.847, respectively.

Regarding GCGTCT, the binding signal stood at 1.02 in assay [1], 1.23 in assay [2] and 0.983 in assay [3].

Regarding AAACAG, the binding signal in assay [1] came out at 0.998; in assay [2] it was 1.07; in assay [3], 0.977.

For the sequence TAAGAG, the figures for the binding signal in assay [1], in assay [2] and in assay [3] were 0.859, 0.911 and 0.889, respectively.

Consider TGGATT, for which the binding signal turned out to be 0.966 in assay [1], 0.918 in assay [2] and 0.909 in assay [3].

Take GGTATG: the results for the binding signal in assay [1], in assay [2] and in assay [3] were 0.873, 1 and 1.02, respectively.

For the sequence ACACCA, the binding signal in assay [1] amounted to 0.944; in assay [2] it was 0.965; in assay [3] it was 0.966.

In the case of ACAAGG, the binding signal in assay [1] worked out at 0.933; in assay [2] it was 0.897; in assay [3] it was 0.913.

Regarding TCAGCC, the binding signal in assay [1] stood at 1.06; in assay [2], 1.02; in assay [3], 1.03.

For GGGTAT, the figures for the binding signal in assay [1], in assay [2] and in assay [3] were 0.971, 1.03 and 0.977, respectively.

For CACGTT, the binding signal in assay [1] was determined as 1.3; in assay [2], 1.31; in assay [3], 1.18.

TCTTCG: the results for the binding signal in assay [1], in assay [2] and in assay [3] were 1.45, 1.52 and 1.49, respectively.

AGAAAA: the values for the binding signal in assay [1], in assay [2] and in assay [3] were 1.03, 1.02 and 0.981, respectively.

Regarding GCAATG, the binding signal worked out at 0.956 in assay [1], 1.04 in assay [2] and 0.969 in assay [3].

On to AACAGA, for which the binding signal in assay [1] worked out at 0.972; in assay [2] it was 0.916; in assay [3], 0.953.

In the case of TTAGTG, the binding signal in assay [1] was 0.841; in assay [2] it was 0.808; in assay [3], 0.946.

As for GAAGGT, the binding signal in assay [1] was found to be 0.926; in assay [2], 0.855; in assay [3], 0.847.

As for GTAAGC, the results for the binding signal in assay [1], in assay [2] and in assay [3] were 0.958, 0.908 and 0.92, respectively.

Take TGCTAG: the binding signal in assay [1] is 1.08; in assay [2], 1.09; in assay [3], 1.09.

For the sequence AGTTTT, the binding signal in assay [1] stood at 0.949; in assay [2] it was 0.991; in assay [3] it was 0.87.

Turning to TTTAAG, the binding signal in assay [1] is 1.38; in assay [2] it was 1.33; in assay [3], 1.44.

For TGGAAC, the binding signal turned out to be 0.993 in assay [1], 0.92 in assay [2] and 0.91 in assay [3].

In the case of CGGCCC, the results for the binding signal in assay [1], in assay [2] and in assay [3] were 0.925, 0.998 and 0.966, respectively.

In the case of GACTCG, the binding signal in assay [1] was found to be 0.921; in assay [2] it was 0.866; in assay [3], 0.754.

In the case of GAACTG, the figures for the binding signal in assay [1], in assay [2] and in assay [3] were 0.984, 0.993 and 0.986, respectively.

Consider CCGCGG, for which the figures for the binding signal in assay [1], in assay [2] and in assay [3] were 0.848, 0.917 and 0.791, respectively.

For the sequence CAGTTC, the binding signal was found to be 0.956 in assay [1], 1.04 in assay [2] and 0.98 in assay [3].

With GCCACA, the values for the binding signal in assay [1], in assay [2] and in assay [3] were 0.986, 0.974 and 0.976, respectively.

Turning to CATTTG, the binding signal in assay [1] stood at 1.28; in assay [2], 1.26; in assay [3], 1.25.

Take TGTGCG: the binding signal in assay [1] was 0.928; in assay [2] it was 1.13; in assay [3] it was 0.957.

As for TGGTTG, the figures for the binding signal in assay [1], in assay [2] and in assay [3] were 0.927, 1.02 and 0.993, respectively.

Take CTGAGG: the binding signal in assay [1] was determined as 0.8; in assay [2] it was 0.903; in assay [3], 0.758.

On to GTTGGC, for which the binding signal is 0.818 in assay [1], 0.885 in assay [2] and 0.934 in assay [3].

Turning to GTAGCG, the values for the binding signal in assay [1], in assay [2] and in assay [3] were 0.951, 0.932 and 0.889, respectively.

Turning to ATTCGG, the binding signal came out at 0.959 in assay [1], 1.01 in assay [2] and 0.803 in assay [3].

As for ACGCGT, the binding signal was determined as 0.976 in assay [1], 0.961 in assay [2] and 0.855 in assay [3].

On to GGAATA, for which the binding signal was 0.922 in assay [1], 0.818 in assay [2] and 0.94 in assay [3].

Turning to ATTGTG, the binding signal in assay [1] is 0.979; in assay [2] it was 1.01; in assay [3] it was 0.933.

For ACAAGA, the binding signal in assay [1] was 0.986; in assay [2] it was 0.948; in assay [3] it was 0.984.

With GCGTTT, the binding signal was found to be 1.11 in assay [1], 1.13 in assay [2] and 0.985 in assay [3].

On to AGTGCC, for which the figures for the binding signal in assay [1], in assay [2] and in assay [3] were 0.996, 0.88 and 0.937, respectively.

Regarding GAGCTC, the binding signal was found to be 0.885 in assay [1], 1.03 in assay [2] and 0.909 in assay [3].

As for GCGGCA, the binding signal was 0.911 in assay [1], 0.86 in assay [2] and 0.806 in assay [3].

As to TTGAGA, the binding signal in assay [1] stood at 0.88; in assay [2], 0.864; in assay [3] it was 0.997.

On to ACTGGG, for which the binding signal in assay [1] came to 0.931; in assay [2], 0.893; in assay [3], 0.821.

GTTAGC: the values for the binding signal in assay [1], in assay [2] and in assay [3] were 0.929, 0.962 and 0.989, respectively.

For the sequence GACTTG, the results for the binding signal in assay [1], in assay [2] and in assay [3] were 0.792, 0.887 and 0.857, respectively.

On to TCGAAA, for which the binding signal in assay [1] came to 0.941; in assay [2] it was 1.02; in assay [3], 0.977.

In the case of ATAGTG, the binding signal in assay [1] was 0.959; in assay [2] it was 0.944; in assay [3], 0.837.

Consider CGAGAT, for which the binding signal in assay [1] was determined as 0.933; in assay [2], 0.859; in assay [3], 0.938.

For AGAGAA, the binding signal in assay [1] is 0.914; in assay [2], 0.838; in assay [3], 0.841.

Take GTCCAA: the binding signal in assay [1] was 0.916; in assay [2], 1; in assay [3], 0.968.

For AACGGA, the binding signal was determined as 0.955 in assay [1], 0.991 in assay [2] and 1.23 in assay [3].

Take GCAGAA: the figures for the binding signal in assay [1], in assay [2] and in assay [3] were 0.911, 0.933 and 0.799, respectively.

For the sequence GTTGTC, the figures for the binding signal in assay [1], in assay [2] and in assay [3] were 0.847, 0.842 and 0.932, respectively.

For TAAGCG, the binding signal turned out to be 1.01 in assay [1], 0.899 in assay [2] and 0.976 in assay [3].

For the sequence GCACAT, the binding signal in assay [2] amounted to 1.14; in assay [3] it was 1.28.

Turning to TCATGA, the binding signal in assay [2] amounted to 1.01; in assay [3] it was 0.947.

Regarding CGCCAA, the figures for the binding signal in assay [2] and in assay [3] were 1.03 and 0.978, respectively.

Source of the values: publication PMC7862700.
